{"source": "the supplement of paper PMC3334620", "note": "Over roughly 33,000 sequences, “E-score (-0.5 to 0.5)” has its median near -0.0014; the highest 2% begin near 0.25. The list shows a part of the results.", "data": [{"biological_target": "T1, Cad1 (UniProt P24813)", "T1 sequence": "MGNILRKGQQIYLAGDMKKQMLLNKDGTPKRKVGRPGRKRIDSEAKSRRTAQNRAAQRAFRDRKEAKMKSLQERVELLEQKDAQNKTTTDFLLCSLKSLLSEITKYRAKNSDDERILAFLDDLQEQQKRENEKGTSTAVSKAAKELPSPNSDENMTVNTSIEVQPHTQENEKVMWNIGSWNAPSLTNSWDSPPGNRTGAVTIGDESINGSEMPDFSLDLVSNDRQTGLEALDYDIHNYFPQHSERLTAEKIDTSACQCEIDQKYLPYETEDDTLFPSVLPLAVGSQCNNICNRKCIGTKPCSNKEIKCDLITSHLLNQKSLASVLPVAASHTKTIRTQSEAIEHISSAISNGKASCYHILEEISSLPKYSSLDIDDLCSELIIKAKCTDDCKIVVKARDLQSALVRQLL", "assay": "PBM E-score (8-mer binding enrichment) (E-score (-0.5 to 0.5)); higher = stronger / more preferred TF binding", "conditions": "protein concentration: 100 nM; construct: GST-full length", "how_it_was_run": "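Bound GST-tagged yeast transcription factors, applied at about 100-200 nM to double-stranded universal all-10-mer Agilent arrays, were detected with fluorescent anti-GST. Scans were normalised with masliner. A modified Wilcoxon-Mann-Whitney statistic, the E-score, was assigned to each ungapped eight-base word pooled with its reverse complement by the Universal PBM Analysis Suite.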", "values": [{"sequence": "GATTGAGC", "PBM E-score": 0.0444}, {"sequence": "CAGTAGCA", "PBM E-score": -0.0805}, {"sequence": "AATCAGGC", "PBM E-score": 0.162}, {"sequence": "GTTAAAGA", "PBM E-score": -0.0721}, {"sequence": "AGCCCGTG", "PBM E-score": -0.246}, {"sequence": "CACGATGA", "PBM E-score": 0.105}, {"sequence": "AGTATGGA", "PBM E-score": 0.0255}, {"sequence": "ACGTACGA", "PBM E-score": -0.163}, {"sequence": "CAGCCGTA", "PBM E-score": -0.0902}, {"sequence": "ATGGCGAG", "PBM E-score": -0.0096}, {"sequence": "ATGCTTTG", "PBM E-score": 0.0882}, {"sequence": "AGGACCCT", "PBM E-score": -0.181}, {"sequence": "CGTAAAAA", "PBM E-score": 0.077}, {"sequence": "AGACACAA", "PBM E-score": 0.0583}, {"sequence": "GTGAATAA", "PBM E-score": 0.132}, {"sequence": "CCTCTACC", "PBM E-score": -0.136}, {"sequence": "ACCTTTCT", "PBM E-score": 0.0143}, {"sequence": "CTTGTGCC", "PBM E-score": -0.161}, {"sequence": "ATAAATGC", "PBM E-score": -0.0377}, {"sequence": "ATAATTAT", "PBM E-score": 0.377}, {"sequence": "ATTGTATC", "PBM E-score": 0.0771}, {"sequence": "ATCAACCG", "PBM E-score": 0.119}, {"sequence": "CCCCAGGC", "PBM E-score": -0.346}, {"sequence": "ACAGAGGG", "PBM E-score": -0.202}, {"sequence": "ATTGGGAC", "PBM E-score": 0.00101}, {"sequence": "ACACTGCC", "PBM E-score": 0.138}, {"sequence": "CTCACGGA", "PBM E-score": -0.00122}, {"sequence": "CTCTCGTC", "PBM E-score": -0.133}, {"sequence": "CGCACATC", "PBM E-score": -0.0936}, {"sequence": "GAAGTGCC", "PBM E-score": 0.00325}, {"sequence": "AATGGCCG", "PBM E-score": -0.0855}, {"sequence": "ATATCGTG", "PBM E-score": 0.164}, {"sequence": "AAGGAACA", "PBM E-score": 0.0112}, {"sequence": "GTCATCCA", "PBM E-score": 0.0478}, {"sequence": "ATTCGGCC", "PBM E-score": -0.0167}, {"sequence": "GGGATTAC", "PBM E-score": 0.0157}, {"sequence": "CTCAGAGA", "PBM E-score": 0.027}, {"sequence": "TGGTTAAA", "PBM E-score": 0.113}, {"sequence": "ACTTTCCA", "PBM E-score": 0.0149}, {"sequence": "CATTTAGA", "PBM E-score": -0.0139}, {"sequence": "TATGCATA", "PBM E-score": -0.0368}, {"sequence": "AACATTGC", "PBM E-score": -0.0995}, {"sequence": "CCTCCCCA", "PBM E-score": -0.0358}, {"sequence": "AGTAACCG", "PBM E-score": 0.157}, {"sequence": "CGTTGGAA", "PBM E-score": -0.00279}, {"sequence": "CAATGAAA", "PBM E-score": 0.0476}, {"sequence": "AACTCAGC", "PBM E-score": -0.0136}, {"sequence": "CGTAGGGA", "PBM E-score": -0.227}, {"sequence": "ACGGACAG", "PBM E-score": 0.0805}, {"sequence": "ACCATTCC", "PBM E-score": 0.134}, {"sequence": "AACGTACC", "PBM E-score": -0.116}, {"sequence": "AGCAAGGG", "PBM E-score": 0.0404}, {"sequence": "GAGCCGGA", "PBM E-score": -0.114}, {"sequence": "AAAGAACG", "PBM E-score": 0.117}, {"sequence": "CTTTGTAA", "PBM E-score": 0.333}, {"sequence": "CATAGCAG", "PBM E-score": -0.18}, {"sequence": "GGTCGACA", "PBM E-score": 0.0882}, {"sequence": "AGATATAG", "PBM E-score": 0.209}, {"sequence": "AGGTCTAG", "PBM E-score": -0.254}, {"sequence": "ACGCGAGT", "PBM E-score": 0.148}, {"sequence": "TGTCTGAA", "PBM E-score": 0.0398}, {"sequence": "GATACCAC", "PBM E-score": -0.00843}, {"sequence": "ACGAGCTC", "PBM E-score": -0.0475}, {"sequence": "CACAAGAA", "PBM E-score": 0.165}, {"sequence": "ATAGTGTA", "PBM E-score": 0.0723}, {"sequence": "GGGATACC", "PBM E-score": -0.297}, {"sequence": "AAGCAAAC", "PBM E-score": 0.135}, {"sequence": "AGGATGGG", "PBM E-score": -0.107}, {"sequence": "AAGCTTCT", "PBM E-score": -0.0508}, {"sequence": "AGTTTTCA", "PBM E-score": 0.081}, {"sequence": "AAATCGTG", "PBM E-score": 0.263}, {"sequence": "CTGACCTC", "PBM E-score": -0.0374}, {"sequence": "AGTAGTTG", "PBM E-score": 0.129}, {"sequence": "TACCGCGA", "PBM E-score": 0.172}, {"sequence": "GTGAAAGA", "PBM E-score": 0.0393}, {"sequence": "CTTGTATC", "PBM E-score": 0.00667}, {"sequence": "GCCGGACC", "PBM E-score": -0.145}, {"sequence": "ATCAGAAG", "PBM E-score": -0.0366}, {"sequence": "AGGCAGCG", "PBM E-score": -0.0676}, {"sequence": "CACCTCAC", "PBM E-score": -0.0294}, {"sequence": "GTAGGGCA", "PBM E-score": 0.0201}, {"sequence": "ATCCCTTG", "PBM E-score": -0.131}, {"sequence": "CAAGGAAG", "PBM E-score": -0.0537}, {"sequence": "GAGATACC", "PBM E-score": 0.0744}, {"sequence": "GATGTCCA", "PBM E-score": 0.0451}, {"sequence": "TGAGTGAA", "PBM E-score": 0.0265}, {"sequence": "AGGCGTTG", "PBM E-score": -0.0072}, {"sequence": "ACACCTCC", "PBM E-score": -0.0181}, {"sequence": "GTGGATCA", "PBM E-score": -0.047}, {"sequence": "ATACAATA", "PBM E-score": 0.16}, {"sequence": "ACCCTCGC", "PBM E-score": -0.0891}, {"sequence": "CATGAGAG", "PBM E-score": 0.0887}, {"sequence": "GCGGATGA", "PBM E-score": 0.0552}, {"sequence": "ACCAATCT", "PBM E-score": 0.105}]}]}
